Two molecules from PMC12166272 can be followed below.

The chains behind the UniProt entries cited, without tags or fusion partners.
UniProt Q13547: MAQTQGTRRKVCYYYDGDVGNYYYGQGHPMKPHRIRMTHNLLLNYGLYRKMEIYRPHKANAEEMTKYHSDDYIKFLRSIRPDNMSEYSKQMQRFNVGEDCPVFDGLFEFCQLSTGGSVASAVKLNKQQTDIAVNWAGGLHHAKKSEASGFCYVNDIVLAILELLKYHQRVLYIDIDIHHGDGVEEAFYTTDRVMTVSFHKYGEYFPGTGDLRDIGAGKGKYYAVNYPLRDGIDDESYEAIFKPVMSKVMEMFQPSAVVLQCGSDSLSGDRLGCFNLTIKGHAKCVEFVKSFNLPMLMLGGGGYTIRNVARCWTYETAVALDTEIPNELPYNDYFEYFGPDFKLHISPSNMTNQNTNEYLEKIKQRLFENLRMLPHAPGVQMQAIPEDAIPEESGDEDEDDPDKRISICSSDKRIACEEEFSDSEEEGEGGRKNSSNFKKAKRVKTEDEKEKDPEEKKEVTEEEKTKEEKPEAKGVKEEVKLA

One assay concerns the target T1, FLAG-IRF7-K375R (UniProt Q92985).
T1 sequence: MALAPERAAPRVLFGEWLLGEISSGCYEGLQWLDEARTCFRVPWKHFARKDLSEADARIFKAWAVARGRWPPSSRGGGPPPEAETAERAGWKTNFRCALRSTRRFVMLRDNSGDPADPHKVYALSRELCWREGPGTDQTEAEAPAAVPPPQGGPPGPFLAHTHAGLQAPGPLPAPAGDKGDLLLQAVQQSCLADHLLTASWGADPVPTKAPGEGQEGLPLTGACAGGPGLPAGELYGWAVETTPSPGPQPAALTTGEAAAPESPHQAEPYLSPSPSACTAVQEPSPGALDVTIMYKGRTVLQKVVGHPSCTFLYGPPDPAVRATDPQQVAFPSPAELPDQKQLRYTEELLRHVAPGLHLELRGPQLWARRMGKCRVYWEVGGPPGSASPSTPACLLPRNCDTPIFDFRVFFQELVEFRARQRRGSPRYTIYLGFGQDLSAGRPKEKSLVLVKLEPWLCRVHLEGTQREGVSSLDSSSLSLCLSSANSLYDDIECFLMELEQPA
Put plainly: affinity purification with mass spectrom.

Assay [1] deals with T2, FLAG-IRF7 (interferon regulatory factor 7, full-length) (UniProt Q92985).
T2 sequence: T1 sequence with R375K
Put plainly: affinity purification with mass spectrom.

Where a chain is given by its changes, count along the chain named. These are yes or no findings as the source states them, for the method shown. In cells and extracts the contact can be indirect. These calls come from enrichment with a bait or labelling near it, and not all partners need be listed. Tags and fused reporters may be left off the sequences shown.

As for “HDAC1 (histone deacetylase 1), found by mass spectrometry in HEK293T (from UniProt Q13547 1-482)”, the binding entry with FLAG-IRF7-K375R is on record as “binds”.

B1: NEURL3 (neuralized E3 ubiquitin-protein ligase 3), found by mass spectrometry in HEK293T (protein, UniProt Q96EH8 1-262)
chain: MGAQLCFEANAKAPREALRFHAEAKGAQVRLDTRGCIAHRRTTFHDGIVFSQRPVRLGERVALRVLREESGWCGGLRVGFTRLDPACVSVPSLPPFLCPDLEEQSPTWAAVLPEGCALTGDLVRFWVDRRGCLFAKVNAGCRLLLREGVPVGAPLWAVMDVYGTTKAIELLDPTASRLPTPMPWDLSNKAVPEPKATPGEECAICFYHAANTRLVPCGHTYFCRYCAWRVFSDTAKCPVCRWQIEAVAPAQGPPALRVEEGS
As for B1, the binding entry in assay [1] is “binds”.
